From US20240376186A1
Results are given in words; binding and its absence hold for the method and conditions named. Binding calls can cover weak binding; strength is not graded here.

How the values were obtained:
[1] = molecular target: iC3b; assay: bio-layer interferometry, summary of affinities (FIG. 10)
[2] = molecular target: iC3b; assay: bio-layer interferometry, binder on anti-penta his biosensors
[3] = molecular target: iC3b; assay: bio-layer interferometry, EWEµH on anti-penta his biosensors, 3.125-50 nM iC3b
[4] = molecular target: iC3b; assay: bio-layer interferometry, EWEnH on anti-penta his biosensors, 6.25-100 nM iC3b
[5] = molecular target: iC3b; assay: bio-layer interferometry, EWE-hC3Nb1 on anti-penta his biosensors, 3.125-50 nM iC3b

Measured: binding

B1: EWEµH (protein, not shown: small tags and cut ends)
chain: EWEQVQLVETGGGLVQAGGSLRLSCAASGSIFSINAMGWFRQAPGKEREFVATINRSGGRTYYADSVKGRFTISRDNGKNMVYLQMHSLKPEDTAIYYCAAGTGWSPQTDNEYNYWGQGTQVTVSSGGGGSGGGGSGGGGSGGGGSRPCGHPGDTPFGTFTLTGGNVFEYGVKAVYTCNEGYQLLGEINYRECDTDGWTNDIPICEVVKCLPVTAPENGKIVSSAMEPDREYHFGQAVRFVCNSGYKIEGDEEMHCSDDGFWSKEKPKCVEISCKSPDVINGSPISQKIIYKENERFQYKCNMGYEYSERGDAVCTESGWRPLPSCEEAGGGGGGGGGGGGGKCGPPPPIDNGDITSFPLSVYAPASSVEYQCQNLYQLEGNKRITCRNGQWSEPPKCLHPCVISREIMENYNIALRWTAKQKLYSRTGESVEFVCKRGYRLSSRSHTLRTTCWDGKLEYPTCAKRENLYFQG
binds: [1] | [2] | [3]

B2: EWEnH (protein, not shown: small tags and cut ends)
chain: EWEQVQLVETGGGLVQAGGSLRLSCAASGSIFSINAMGWFRQAPGKEREFVATINRSGGRTYYADSVKGRFTISRDNGKNMVYLQMHSLKPEDTAIYYCAAGTGWSPQTDNEYNYWGQGTQVTVSSGGGGSGGGGSGGGGSGGGGSRPCGHPGDTPFGTFTLTGGNVFEYGVKAVYTCNEGYQLLGEINYRECDTDGWTNDIPICEVVKCLPVTAPENGKIVSSAMEPDREYHFGQAVRFVCNSGYKIEGDEEMHCSDDGFWSKEKPKCVEISCKSPDVINGSPISQKIIYKENERFQYKCNMGYEYSERGDAVCTESGWRPLPSCEEA
binds: [1] | [2] | [4]

B3: EWE-hC3Nb1 (VHH, not shown: small tags and cut ends)
VHH: QVQLVETGGGLVQAGGSLRLSCAASGSIFSINAMGWFRQAPGKEREFVATINRSGGRTYYADSVKGRFTISRDNGKNMVYLQMHSLKPEDTAIYYCAAGTGWSPQTDNEYNYWGQGTQVTVSS
binds: [1] | [2] | [5]
